Measurements published in publication PMC3649970, “A Unique Spumavirus Gag N-terminal Domain with Functional Properties of Orthoretroviral Matrix and Capsid” (PLoS Pathogens, 2013).
No constants are given. Whether binding was seen depends on the method and setting.

Biological target: T1, PFV-Gag-NtD V14S/V18S/L21S (Prototypic foamy virus (PFV)) (UniProt P14349)
T1 sequence: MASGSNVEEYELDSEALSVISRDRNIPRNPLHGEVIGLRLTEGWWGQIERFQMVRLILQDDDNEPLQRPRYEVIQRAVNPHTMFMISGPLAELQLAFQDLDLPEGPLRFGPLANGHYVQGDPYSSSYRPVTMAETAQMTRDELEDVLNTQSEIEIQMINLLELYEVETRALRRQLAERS
Assay: AUC; sedimentation velocity of 75 µM equimolar mixtures of Gag-NtD and Env peptide, absorbance at 280 nm; bound fraction from the integrated absorbance of the 3S species in C(S); both purified

B1: PFV Env leader peptide residues 1-20 (peptide, UniProt P14351 1-20, looked up)
peptide: MAPPMTLQQWIIWKKMNKAH
notes: Envelope (Env) protein of Prototypic Foamy Virus, N-terminal leader peptide region, residues 1-20 (Met1 to His20); the text names M1, A2, P3, P4, M5, T6, L7, Q9, W10, W13, M16, A19, H20; also called Env_(1-20); Env(1-20); source: synthetic peptide, bought HPLC purified: Pepceuticals Ltd
  binding: no binding (tested: 75 µM equimolar mixture)
